Laboratory results from patent publication US10842811B2, “Inulin for preventing antibiotic resistant infection and pathogen colonization” (The Trustees of Columbia University in the City of New York, priority 2018, dated 2020).
At least one compound was matched to its structure with a doubt left.

Tested on: fecal microbiome
Assay: Cross-over trial of proton pump inhibitor effects on the fecal microbiome in healthy volunteers
Format: in vivo, human

COc1ccc2[nH]c([S+]([O-])Cc3ncc(C)c(OC)c3C)nc2c1 (stereo not drawn) [omeprazole]
within-individual change in Streptococcaceae (4 weeks of PPIs, p=0.002): significant within-individual increases
within-individual change in Clostridiaceae (4 weeks of PPIs, p=0.03): decreased
within-individual change in Enterococcaceae (4 weeks of PPIs, p=0.03): significant within-individual increases
PICRUSt functional analyses (8 weeks of PPIs): increases in gene pathways for bacterial invasion and renin-angiotensin
fecal bile acids (human, in vivo): no changes
fecal microbiome diversity (omeprazole 40 mg twice daily, 4 or 8 weeks, 12 healthy volunteers, p=0.48): Neither 4 nor 8 weeks of PPIs altered diversity
